According to PubChem BioAssay AID328 (DTP/NCI, 2004):
The list does not hold the whole screen: it covers a few groups of compounds. Not every dose and run of a compound is shown. T/C is the treated group as % of the vehicle group. Some entries give survivors of the animals treated and no T/C: the source files T/C as zero there, which appears to mark a toxic dose or a test without result, not a measured value. Some doses without a T/C left all or most animals alive at the check, yet need not have been tolerated: survival well below the control is almost never listed, so the zero probably covers shortened survival too. Survivors were counted at the toxicity check, usually on the fifth day, unless a day is given; later deaths do not show. Schedule codes are those of the source, read here as Q, the interval in days (D) or hours (H), X, the number of doses. Some complexes appear as separate parts, the way the source draws them; their charges need not add up. For survival time, the PubChem record calls one and a half times the control and up active, and a quarter to a half above the control has no call in these data; cut-offs in other NCI protocols can differ. Some T/C values carry the count of animals alive at the toxicity check (mostly the fifth day); where neither a count nor a note follows, no animal had died by that day. Some doses were run more than once; the values are given in rising order. Some T/C values are marked as having no survivor count here; that says nothing about deaths at the dose.

Tested on: BDF1 mice, P388 leukemia ip, median survival T/C
Experiment: NCI In Vivo Anticancer Drug Screen. Data for tumor model P388 Leukemia (intraperitoneal) in B6D2F1 (BDF1) mice
Details: T/C endpoint: median survival time, higher T/C = longer survival
Procedure, shortened: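 Read-out is survival of treated animals expressed relative to the vehicle group, as a T/C ratio.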

[1] = dose: 6.25 mg/kg/injection, schedule: Q01DX009 (ip), vehicle: saline
[2] = dose: 12.5 mg/kg/injection, schedule: Q01DX009 (ip), vehicle: saline with Tween-80
[3] = dose: 12.5 mg/kg/injection, schedule: Q01DX009 (ip), vehicle: saline
[4] = dose: 25.0 mg/kg/injection, schedule: Q01DX009 (ip), vehicle: saline with Tween-80
[5] = dose: 50.0 mg/kg/injection, schedule: Q01DX009 (ip), vehicle: saline
[6] = dose: 100.0 mg/kg/injection, schedule: Q01DX009 (ip), vehicle: saline
[7] = dose: 200.0 mg/kg/injection, schedule: Q01DX009 (ip), vehicle: saline

## NC(=O)c1[nH]cnc1/N=N\N(CCCl)CCCl
dose: 3.13 mg/kg/injection, schedule: Q01DX010 (ip), vehicle: carboxymethylcellulose (CMC)
  T/C: 109 % of control
dose: 6.25 mg/kg/injection, schedule: Q01DX010 (ip), vehicle: carboxymethylcellulose (CMC)
  T/C: 109 % of control
dose: 12.5 mg/kg/injection, schedule: Q01DX010 (ip), vehicle: carboxymethylcellulose (CMC)
  T/C: 127 % of control
dose: 25.0 mg/kg/injection, schedule: Q01DX010 (ip), vehicle: carboxymethylcellulose (CMC)
  T/C: 181 % of control
dose: 25.0 mg/kg/injection, schedule: Q01DX010 (ip), vehicle: saline
  T/C: 183 % of control
dose: 50.0 mg/kg/injection, schedule: Q01DX010 (ip), vehicle: saline
  T/C: 241 % of control
dose: 100.0 mg/kg/injection, schedule: Q01DX010 (ip), vehicle: saline
  T/C: 295 % of control
dose: 200.0 mg/kg/injection, schedule: Q01DX001 (ip), vehicle: other
  T/C: 254 and 336 % of control
dose: 200.0 mg/kg/injection, schedule: Q01DX010 (ip), vehicle: saline
  T/C: 91 % of control
dose: 300.0 mg/kg/injection, schedule: Q01DX001 (ip), vehicle: other
  T/C: 331 and 451 % of control
dose: 400.0 mg/kg/injection, schedule: Q01DX001 (ip), vehicle: other
  T/C: 524 and 527 % of control

## COc1cc2c(c3oc4cccc(O)c4c(=O)c13)[C@@H]1C=CO[C@@H]1O2
dose: 3.75 mg/kg/injection, schedule: Q01DX009 (ip), vehicle: Klucel (hydroxypropylcellulose) (HPC)
  T/C: 134 % of control
dose: 7.5 mg/kg/injection, schedule: Q01DX009 (ip), vehicle: Klucel (hydroxypropylcellulose) (HPC)
  T/C: 117, 142, 162 % of control
dose: 15.0 mg/kg/injection, schedule: Q01DX009 (ip), vehicle: Klucel (hydroxypropylcellulose) (HPC)
  T/C: 141, 211, 240 % of control
dose: 15.0 mg/kg/injection, schedule: Q01DX009 (oral), vehicle: Klucel (hydroxypropylcellulose) (HPC)
  survivor count: 4 of 10
dose: 30.0 mg/kg/injection, schedule: Q01DX009 (ip), vehicle: Klucel (hydroxypropylcellulose) (HPC)
  T/C: 163, 174, 199 % of control [5 of 6 alive]
dose: 30.0 mg/kg/injection, schedule: Q01DX009 (oral), vehicle: Klucel (hydroxypropylcellulose) (HPC)
  survivor count: 1 of 10
dose: 60.0 mg/kg/injection, schedule: Q01DX009 (ip), vehicle: Klucel (hydroxypropylcellulose) (HPC)
  T/C: 147, 163, 185 % of control
dose: 60.0 mg/kg/injection, schedule: Q01DX009 (oral), vehicle: Klucel (hydroxypropylcellulose) (HPC)
  survivor count: 4 of 10
dose: 120.0 mg/kg/injection, schedule: Q01DX009 (ip), vehicle: Klucel (hydroxypropylcellulose) (HPC)
  T/C: 159 % of control [9 of 10 alive]
dose: 120.0 mg/kg/injection, schedule: Q01DX009 (oral), vehicle: Klucel (hydroxypropylcellulose) (HPC)
  survivor count: 3 of 10
dose: 240.0 mg/kg/injection, schedule: Q01DX009 (ip), vehicle: Klucel (hydroxypropylcellulose) (HPC)
  T/C: 95 % of control
dose: 240.0 mg/kg/injection, schedule: Q01DX009 (oral), vehicle: Klucel (hydroxypropylcellulose) (HPC)
  survivor count: 3 of 10
dose: 480.0 mg/kg/injection, schedule: Q01DX009 (oral), vehicle: Klucel (hydroxypropylcellulose) (HPC)
  survivor count: 1 of 10

## O=Nc1ccc(N(CCCl)CCCl)cc1
dose: 0.78 mg/kg/injection, schedule: Q01DX009 (ip), vehicle: saline
  T/C: 141 % of control
dose: 1.56 mg/kg/injection, schedule: Q01DX009 (ip), vehicle: saline
  T/C: 156 % of control
dose: 3.12 mg/kg/injection, schedule: Q01DX009 (ip), vehicle: saline
  T/C: 189 % of control
dose: 3.13 mg/kg/injection, schedule: Q01DX009 (ip), vehicle: saline
  T/C: 125 % of control
[1]
  survivor count: 6 of 6
[2]
  survivor count: 4 of 6
[3]
  survivor count: 3 of 6
[4]
  survivor count: 0 of 6
dose: 50.0 mg/kg/injection, schedule: Q01DX009 (ip), vehicle: saline with Tween-80
  survivor count: 0 of 6
dose: 100.0 mg/kg/injection, schedule: Q01DX009 (ip), vehicle: saline with Tween-80
  survivor count: 0 of 6

## COc1ccc2nccc(C[C@@H]3CC4CCN3CC4)c2c1.O=[N+]([O-])c1cc([N+](=O)[O-])c(O)c([N+](=O)[O-])c1
dose: 100.0 mg/kg/injection, schedule: Q01DX001 (ip), vehicle: saline with Tween-80
  T/C: 99 % of control [survivor count not shown]
dose: 200.0 mg/kg/injection, schedule: Q01DX001 (ip), vehicle: saline with Tween-80
  T/C: 91 % of control [survivor count not shown]
dose: 400.0 mg/kg/injection, schedule: Q01DX001 (ip), vehicle: saline with Tween-80
  T/C: 91 % of control [survivor count not shown]

## O=c1[nH]cc(Nc2c([N+](=O)[O-])cc([N+](=O)[O-])cc2[N+](=O)[O-])c(=O)[nH]1
dose: 6.25 mg/kg/injection, schedule: Q01DX009 (ip), vehicle: saline with Tween-80
  T/C: 100 % of control
[2]
  T/C: 104 % of control
[4]
  T/C: 100 % of control

## CN(C)c1ccc(N=O)cc1.[C-]#N.[C-]#N.[C-]#N.[C-]#N.[C-]#N.[Fe+6]
[1]
  T/C: 104 % of control [5 of 6 alive]
[3]
  T/C: 109 % of control
dose: 25.0 mg/kg/injection, schedule: Q01DX009 (ip), vehicle: saline
  T/C: 95 % of control
[5]
  survivor count: 5 of 6
[6]
  survivor count: 5 of 6
dose: 100.0 mg/kg/injection, schedule: Q04DX003 (ip), vehicle: saline
  T/C: 104 % of control
[7]
  survivor count: 5 of 6
dose: 200.0 mg/kg/injection, schedule: Q04DX003 (ip), vehicle: saline
  T/C: 104 % of control
dose: 400.0 mg/kg/injection, schedule: Q04DX003 (ip), vehicle: saline
  survivor count: 0 of 6

## CC1CN1P(=O)(Nc1ncccn1)N1CC1C (configuration not stated)
[5]
  T/C: 110 % of control
[6]
  survivor count: 6 of 6
[7]
  survivor count: 4 of 6
